From PMC4648529 come the findings set out here.

The chains behind the UniProt entries cited, without tags or fusion partners.
UniProt P62491: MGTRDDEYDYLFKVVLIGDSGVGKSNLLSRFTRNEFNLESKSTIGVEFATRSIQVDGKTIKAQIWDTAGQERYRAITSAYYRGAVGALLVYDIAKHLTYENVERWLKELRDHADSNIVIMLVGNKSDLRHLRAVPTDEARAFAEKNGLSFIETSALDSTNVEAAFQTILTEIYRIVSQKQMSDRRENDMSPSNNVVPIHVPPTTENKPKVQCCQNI
UniProt P03466: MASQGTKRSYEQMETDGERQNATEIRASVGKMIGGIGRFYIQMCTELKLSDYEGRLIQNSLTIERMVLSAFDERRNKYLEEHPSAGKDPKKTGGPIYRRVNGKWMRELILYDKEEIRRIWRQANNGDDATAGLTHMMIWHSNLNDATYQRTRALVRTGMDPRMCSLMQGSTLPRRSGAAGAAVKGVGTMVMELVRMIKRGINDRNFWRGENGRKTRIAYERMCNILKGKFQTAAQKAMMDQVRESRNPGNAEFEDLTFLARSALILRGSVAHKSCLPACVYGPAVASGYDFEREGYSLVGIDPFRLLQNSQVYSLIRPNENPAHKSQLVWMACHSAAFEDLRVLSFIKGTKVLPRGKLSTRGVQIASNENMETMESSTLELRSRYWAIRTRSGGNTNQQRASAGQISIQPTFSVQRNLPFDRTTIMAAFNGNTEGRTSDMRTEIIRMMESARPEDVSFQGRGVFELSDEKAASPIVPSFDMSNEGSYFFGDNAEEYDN
UniProt P03431: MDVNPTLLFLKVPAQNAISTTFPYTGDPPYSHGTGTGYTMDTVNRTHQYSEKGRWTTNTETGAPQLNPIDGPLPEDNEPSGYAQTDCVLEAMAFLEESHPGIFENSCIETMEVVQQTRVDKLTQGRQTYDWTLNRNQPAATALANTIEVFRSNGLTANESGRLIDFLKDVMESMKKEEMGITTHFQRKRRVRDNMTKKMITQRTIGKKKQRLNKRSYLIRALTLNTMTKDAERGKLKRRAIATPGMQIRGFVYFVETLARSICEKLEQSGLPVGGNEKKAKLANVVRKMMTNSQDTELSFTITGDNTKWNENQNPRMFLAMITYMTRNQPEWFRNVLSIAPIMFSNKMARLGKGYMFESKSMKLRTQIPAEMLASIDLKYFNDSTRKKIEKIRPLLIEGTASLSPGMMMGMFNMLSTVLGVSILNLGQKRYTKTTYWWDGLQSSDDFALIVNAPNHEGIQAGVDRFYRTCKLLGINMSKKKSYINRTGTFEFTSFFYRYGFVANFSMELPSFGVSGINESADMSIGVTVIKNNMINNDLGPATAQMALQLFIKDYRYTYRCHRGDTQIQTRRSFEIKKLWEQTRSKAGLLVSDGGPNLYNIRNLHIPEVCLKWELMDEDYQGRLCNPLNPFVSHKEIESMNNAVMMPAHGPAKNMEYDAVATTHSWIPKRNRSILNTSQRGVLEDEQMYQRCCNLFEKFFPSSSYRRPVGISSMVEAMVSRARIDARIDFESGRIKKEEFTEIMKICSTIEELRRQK

These are yes or no findings as the source states them, for the method shown. In cells and extracts the contact can be indirect. Some results given as binding are weak or reduced against the parent protein; the word gives no strength.

Assay [1] addresses FLAG-Rab11a (UniProt P62491). Put plainly: co-IP.
Assay [2] addresses HA (wild-type influenza virus) (influenza virus A/Puerto Rico/8/34) (UniProt P03452). Put plainly: proximity ligation.

As to “nucleoprotein (NP) (from UniProt P03466 1-498)”, the binding result in assay [1] is reported as “binds”.

As for “PB1 subunit of viral polymerase (from UniProt P03431 1-757)”, the binding result in assay [1] is reported as “binds”.

In the case of M1 (from UniProt P03485 1-252), the binding entry in assay [2] is reported as “binds”.
